Data as given in PubChem BioAssay AID1259308 (NCATS, 2017).
Screen: 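Candidate targets for better recombinant protein yield in mammalian cells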 (primary screen). Cell system: human HEK293 embryonic kidney cells stably expressing firefly luciferase (HEK-CMV-Luc2-Hygro). Reagent: single siRNA against human genes, 0.8 pmol siRNA per well. Timing: 72 h. Measured: 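Reporter luminescence and viable-cell signal on separate replicate plates, given as percent of non-targeting control and median/MAD z-scores, plus per-cell luciferase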. Direction: total luciferase, z-score: higher = more reporter protein produced. Hit rule: 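An siRNA counts as active if its total luciferase robust z-score exceeds 3; genes with two or more such siRNAs out of three were retested with fresh siRNAs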. Meaning of the calls: active = raised luciferase; inactive = no rise.
The deposit covers about 59,000 reagents; this is a random part of them. About 1,510 of all reagents (2.6%) were called active. 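Calls use total luciferase alone and ignore viability, so some active siRNAs may act by altering cell number.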 Unmarked entries are inactive. The numbers tell different reagents against one gene apart. Further read-outs or replicates are left out here.

total luciferase, z-score, by target and reagent
CYP2A6: #1 -0.638; #2 -0.792; #3 -0.414
NKG7: #1 0.0296; #2 0.813; #3 2.58
MDM2: #1 0.338; #2 0.422; #3 3.63 (active)
FZD4: #1 2.56; #2 -0.483; #3 -0.325
CCDC124: #1 1.44; #2 -0.467; #3 2.29
OR5D14: #1 -0.207; #2 0.041; #3 -1.39
TCEANC: #1 0.808; #2 -0.849; #3 -1.46
PRXL2A: #1 0.528; #2 -0.31; #3 0.883

No new results follow: entries from further up.
total luciferase, z-score, by target and reagent
CCDC124: #2 -0.467; #3 2.29
OR5D14: #1 -0.207

The listing continues:
total luciferase, z-score, by target and reagent
MUC20: #1 -1.81; #2 0.557; #3 0.691
ANK1: #1 -0.44; #2 1.93; #3 -1.05
GRWD1: #1 0.645; #2 0.921; #3 -0.549
LCP2: #1 -0.154; #2 0.477; #3 0.383
CYP4Z1: #1 0.792; #2 -0.768; #3 2.77
